# Reference: PubChem BioAssay AID330 (DTP/NCI, 2004)
# The list does not hold the whole screen: it is rich in T/C values a quarter to a half above the control, in often repeated tests (any T/C) and in doses without a T/C. Further doses and runs are listed elsewhere. T/C: endpoint of the treated group in % of that of the vehicle group. Some entries give survivors of the animals treated and no T/C: the source files T/C as zero there, which appears to mark a toxic dose or a test without result, not a measured value. Some survivor counts are full or nearly so, which does not show that the dose was tolerated: survival well below the control is almost never listed, so the zero probably covers shortened survival too. Survivors were counted at the toxicity check, usually on the fifth day, unless a day is given; later deaths do not show. Schedule codes are those of the source, taken here to give the interval after Q, in days (D) or hours (H), and the number of doses after X. Some structures stand for samples that the source files as different forms (salt, stereo form or complex); doses refer to the form tested. Where survival is the endpoint, this PubChem deposit counts one and a half times the control or more as active, and values a quarter to a half above the control carry no call in these data; other NCI protocols may use other cut-offs. Marks such as (2×) stand for listed records that agree. Some T/C values carry the count of animals alive at the toxicity check (mostly the fifth day); without a count, all were alive then.
# Test system: P388 leukemia ip, CD2F1 mice, survival T/C
# Assay: NCI In Vivo Anticancer Drug Screen. Data for tumor model P388 Leukemia (intraperitoneal) in CD2F1 (CDF1) mice
# Conditions: T/C endpoint: median survival time, higher T/C = longer survival
# [1] = dose: 100.0 mg/kg/injection, schedule: Q01DX005 (ip), vehicle: Klucel (hydroxypropylcellulose) (HPC)
# [2] = dose: 200.0 mg/kg/injection, schedule: Q01DX005 (ip), vehicle: Klucel (hydroxypropylcellulose) (HPC)
# [3] = dose: 100.0 mg/kg/injection, schedule: Q01DX009 (ip), vehicle: saline
# [4] = dose: 200.0 mg/kg/injection, schedule: Q01DX009 (ip), vehicle: saline
# [5] = dose: 400.0 mg/kg/injection, schedule: Q04DX003 (ip), vehicle: saline with Tween-80
# [6] = dose: 50.0 mg/kg/injection, schedule: Q01DX005 (ip), vehicle: Klucel (hydroxypropylcellulose) (HPC)
# [7] = dose: 200.0 mg/kg/injection, schedule: Q01DX009 (ip), vehicle: Klucel (hydroxypropylcellulose) (HPC)
# [8] = dose: 400.0 mg/kg/injection, schedule: Q01DX009 (ip), vehicle: saline
# [9] = dose: 200.0 mg/kg/injection, schedule: Q01DX009 (ip), vehicle: saline with Tween-80
# [10] = dose: 200.0 mg/kg/injection, schedule: Q01DX005 (ip), vehicle: saline with Tween-80
# [11] = dose: 100.0 mg/kg/injection, schedule: Q01DX005 (ip), vehicle: saline with Tween-80
smiles,measurement,setting,value
CN(C)CCCOc1nc2c(c(=O)n(C)c(=O)n2C)n1C (tested in a mixture with another compound),T/C,"dose: 50.0 mg/kg/injection, schedule: Q01DX005 (ip), vehicle: Klucel (hydroxypropylcellulose) (HPC), evaluated on day 20",128 % of control
same,T/C,"dose: 50.0 mg/kg/injection, schedule: Q01DX005 (ip), vehicle: Klucel (hydroxypropylcellulose) (HPC), evaluated on day 30",130 % of control
same,survivor count,[1],5 of 6
same,survivor count,[2],0 of 6
CC(C)(CS)C(=O)O,survivor count,[3],1 of 6
same,survivor count,[4],0 of 6
CC(C)(C)NC1/C(=C\c2ccccc2)C(=O)c2ccccc2C1(C)C (stereo not drawn),survivor count,"dose: 400.0 mg/kg/injection, schedule: Q01DX009 (ip), vehicle: other",2 of 6
CCC[CH2][Sn](=[O])[c]1ccccc1,T/C,"dose: 100.0 mg/kg/injection, schedule: Q04DX002 (ip), vehicle: saline",147 % of control [5 of 6 alive]
same,survivor count,"dose: 200.0 mg/kg/injection, schedule: Q04DX002 (ip), vehicle: saline",2 of 6
same,survivor count,"dose: 400.0 mg/kg/injection, schedule: Q04DX002 (ip), vehicle: saline",1 of 6
O=C1OC(c2ccccc2)CC1N1CCOCC1 (stereo not drawn),survivor count,"dose: 200.0 mg/kg/injection, schedule: Q04DX003 (ip), vehicle: saline sonified",6 of 6
CC(=O)OCC1OC(n2ncc(=O)[nH]c2=O)C(OC(C)=O)C1OC(C)=O (stereo not drawn),T/C,"dose: 100.0 mg/kg/injection, schedule: Q01DX009 (ip), vehicle: saline with Tween-80",127 % of control
same,T/C,"dose: 200.0 mg/kg/injection, schedule: Q01DX009 (ip), vehicle: saline with Tween-80, evaluated on day 20",127 % of control
same,T/C,"dose: 200.0 mg/kg/injection, schedule: Q01DX009 (ip), vehicle: saline with Tween-80, evaluated on day 30",127 % of control
same,T/C,"dose: 400.0 mg/kg/injection, schedule: Q01DX009 (ip), vehicle: saline with Tween-80, evaluated on day 20",127 % of control
same,T/C,"dose: 400.0 mg/kg/injection, schedule: Q01DX009 (ip), vehicle: saline with Tween-80, evaluated on day 30",127 % of control
COc1ccc(/C=C/c2ccnnc2)cc1,survivor count,[3],5 of 6
Nc1cc(S(=O)(=O)F)ccc1Cl,survivor count,[5],4 of 6
Cc1ccc(NCCNCCO)c2c(=O)c3ccccc3sc12,T/C,"dose: 30.0 mg/kg/injection, schedule: Q01DX009 (ip), vehicle: distilled water + Tween-80",138 % of control
same,T/C,"dose: 30.0 mg/kg/injection, schedule: Q01DX009 (ip), vehicle: water",136 % of control
same,T/C,[6],130 % of control
same,survivor count,"dose: 50.0 mg/kg/injection, schedule: Q01DX005 (ip), vehicle: other",0 of 6
same,T/C,"dose: 60.0 mg/kg/injection, schedule: Q01DX009 (ip), vehicle: distilled water + Tween-80",148 % of control
same,survivor count,"dose: 60.0 mg/kg/injection, schedule: Q01DX009 (ip), vehicle: water",2 of 6
same,T/C,[1],142 % of control
same,survivor count,"dose: 100.0 mg/kg/injection, schedule: Q01DX005 (ip), vehicle: other",0 of 6
same,survivor count,[2],5 of 6
same,survivor count,"dose: 200.0 mg/kg/injection, schedule: Q01DX005 (ip), vehicle: other",0 of 6
same,survivor count,"dose: 400.0 mg/kg/injection, schedule: Q01DX005 (ip), vehicle: Klucel (hydroxypropylcellulose) (HPC)",0 of 6
same,survivor count,"dose: 400.0 mg/kg/injection, schedule: Q01DX005 (ip), vehicle: other",0 of 6
COc1ccc2c(c1)CC[C@@H]1[C@@H]2CC[C@@]2(C)[C@H]1CC[C@@]2(O)C(F)=C(F)F,survivor count,[5],6 of 6
C[N+](C)(C)C1(Cc2ccccc2)c2ccccc2-c2ccc(Cl)cc21 (stereo not drawn),survivor count,"dose: 100.0 mg/kg/injection, schedule: Q01DX009 (ip), vehicle: Klucel (hydroxypropylcellulose) (HPC)",1 of 6
same,survivor count,[7],0 of 6
N=C(N)c1ccc(SCCCCCSc2ccc(C(=N)N)cc2)cc1,T/C,"dose: 3.13 mg/kg/injection, schedule: Q01DX009 (ip), vehicle: saline",126 % of control
same,T/C,"dose: 6.25 mg/kg/injection, schedule: Q01DX009 (ip), vehicle: saline",129 % of control
same,T/C,"dose: 12.5 mg/kg/injection, schedule: Q01DX009 (ip), vehicle: saline",146 % of control
same,survivor count,"dose: 25.0 mg/kg/injection, schedule: Q01DX009 (ip), vehicle: saline with Tween-80",5 of 6
N=C(N)COc1ccccc1,survivor count,"dose: 100.0 mg/kg/injection, schedule: Q01DX005 (ip), vehicle: saline",3 of 5
same,survivor count,"dose: 200.0 mg/kg/injection, schedule: Q01DX005 (ip), vehicle: saline",1 of 5
NC(=O)Nc1cc(NC(N)=O)cc(N(CCCl)CCCl)c1,T/C,"dose: 20.0 mg/kg/injection, schedule: Q04DX003 (ip), vehicle: water",127 % of control
same,T/C,"dose: 40.0 mg/kg/injection, schedule: Q04DX003 (ip), vehicle: water",129 % of control
same,T/C,"dose: 60.0 mg/kg/injection, schedule: Q04DX003 (ip), vehicle: water",131 % of control
CC1(C)OCC(C2OC(C)(C)OC2C(O)c2ccco2)O1 (stereo not drawn),T/C,"dose: 200.0 mg/kg/injection, schedule: Q01DX009 (ip), vehicle: distilled water + Tween-80",126 % of control
C=CCOCC1CO1 (stereo not drawn),T/C,"dose: 200.0 mg/kg/injection, schedule: Q04DX003 (ip), vehicle: saline with Tween-80",127 % of control
same,survivor count,[8],2 of 6
CC(Nc1nccs1)Nc1nccs1,survivor count,[9],3 of 6
COc1ccc(C)cc1NC(=S)C#N,survivor count,"dose: 240.0 mg/kg/injection, schedule: Q01DX005 (ip), vehicle: saline with Tween-80",0 of 6
CC(=O)Oc1ccccc1C(=O)OC1CC(C)CCC1C(C)C (stereo not drawn),survivor count,[1],6 of 6
NC1CN2CCC1CC2 (stereo not drawn),survivor count,[8],0 of 6
CC1(C)N=C(N)N=C(N)N1CCCCc1ccccc1,survivor count,"dose: 25.0 mg/kg/injection, schedule: Q01DX005 (ip), vehicle: Klucel (hydroxypropylcellulose) (HPC)",2 of 6
same,survivor count,[6],0 of 6
same,survivor count,[1],0 of 6
same,survivor count,[2],0 of 6
CCNC(=S)N/N=C/c1nccc(-c2ccccc2)c1C,survivor count,[3],5 of 6
same,T/C,[4],125 % of control (2×)
CCn1cc(C(=O)O)c(=O)c2ccc(C)nc21 (tested in a mixture with another compound),survivor count,"dose: 400.0 mg/kg/injection, schedule: Q04DX002 (ip), vehicle: saline with Tween-80",1 of 6
O=C(CCl)N1CC2CCC(CC2)C1,survivor count,[9],2 of 6
CCOc1c(N=Nc2ccc(Cl)cc2Cl)c(C)nn1C(=S)SC,survivor count,"dose: 240.0 mg/kg/injection, schedule: Q01DX005 (ip), vehicle: Klucel + Tween-80",0 of 6
N#C/C(=C\c1ccc([N+](=O)[O-])o1)[N+](=O)[O-],survivor count,[4],0 of 6
CCCc1cc(=O)[nH]c(Sc2ccc([N+](=O)[O-])cn2)n1,survivor count,[6],1 of 5
same,survivor count,[1],3 of 5
same,survivor count,[2],0 of 5
CC1N2CCc3ccccc3C2C2c3ccccc3CCN21 (stereo not drawn),survivor count,"dose: 100.0 mg/kg/injection, schedule: Q01DX001 (ip), vehicle: suspension in saline",0 of 6
same,survivor count,"dose: 200.0 mg/kg/injection, schedule: Q01DX001 (ip), vehicle: suspension in saline",0 of 6
CCCCCCCCCCCCCCCCCC(=O)CC(=O)C(F)(F)F (tested in a mixture with another compound),survivor count,[9],2 of 6
O=C(NNC(=O)c1ccncc1)Nc1cccc(Cl)c1,survivor count,[7],5 of 6
O=[N+]([O-])C(Br)(Br)S(=O)(=O)c1ccccc1,survivor count,[10],3 of 6
COC(=O)C1=C(N)N2C/C(=C/c3cccs3)SC2=C(C(=O)OC)C1c1cccs1 (stereo not drawn),survivor count,[11],5 of 5
same,survivor count,[10],5 of 5
CCC/C=C(/C=N/Nc1ccc([N+](=O)[O-])cc1[N+](=O)[O-])CC,survivor count,[11],5 of 5
same,survivor count,[10],5 of 5
C/C=C/C[P+](C)(c1ccccc1)c1ccccc1,survivor count,"dose: 1.5 mg/kg/injection, schedule: Q01DX009 (ip), vehicle: saline",1 of 6
same,survivor count,"dose: 3.0 mg/kg/injection, schedule: Q01DX009 (ip), vehicle: saline",0 of 6
